We go through one substance from article PMC9095901.

The chains behind the UniProt entries cited, without tags or fusion partners. Residues count along the entry.
UniProt O00206, residues 24-839: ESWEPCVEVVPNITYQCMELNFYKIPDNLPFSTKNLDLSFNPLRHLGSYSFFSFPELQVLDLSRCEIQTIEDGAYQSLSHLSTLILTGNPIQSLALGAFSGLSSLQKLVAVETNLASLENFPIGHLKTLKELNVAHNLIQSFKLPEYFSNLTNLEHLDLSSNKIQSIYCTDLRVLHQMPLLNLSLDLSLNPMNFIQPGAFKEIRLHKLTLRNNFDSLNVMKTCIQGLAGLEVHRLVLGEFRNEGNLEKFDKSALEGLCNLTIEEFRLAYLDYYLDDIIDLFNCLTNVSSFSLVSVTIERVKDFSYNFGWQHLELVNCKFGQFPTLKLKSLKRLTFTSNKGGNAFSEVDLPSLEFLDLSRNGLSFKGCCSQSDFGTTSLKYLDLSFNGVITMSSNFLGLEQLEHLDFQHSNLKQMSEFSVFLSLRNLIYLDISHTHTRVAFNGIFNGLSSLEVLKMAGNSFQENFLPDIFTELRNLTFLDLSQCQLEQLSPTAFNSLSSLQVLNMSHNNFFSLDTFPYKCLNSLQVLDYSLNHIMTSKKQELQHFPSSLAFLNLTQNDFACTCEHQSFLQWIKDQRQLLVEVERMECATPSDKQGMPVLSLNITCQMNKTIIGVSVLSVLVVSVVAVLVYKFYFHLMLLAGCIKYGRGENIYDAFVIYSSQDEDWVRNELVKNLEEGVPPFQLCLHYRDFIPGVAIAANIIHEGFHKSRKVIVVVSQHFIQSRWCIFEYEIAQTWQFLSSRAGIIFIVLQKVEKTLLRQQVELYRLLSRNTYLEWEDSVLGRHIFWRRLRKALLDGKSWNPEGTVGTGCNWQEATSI
UniProt P06748: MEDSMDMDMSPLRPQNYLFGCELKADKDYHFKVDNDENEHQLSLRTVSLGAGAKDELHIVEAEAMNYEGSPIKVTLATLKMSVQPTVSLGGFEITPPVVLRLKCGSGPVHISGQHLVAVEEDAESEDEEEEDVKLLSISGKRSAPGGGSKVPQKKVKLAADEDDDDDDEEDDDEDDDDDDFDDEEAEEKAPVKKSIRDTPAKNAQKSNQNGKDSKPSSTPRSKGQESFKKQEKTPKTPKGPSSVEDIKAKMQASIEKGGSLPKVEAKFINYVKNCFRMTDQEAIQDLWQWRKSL

For assay [1], the target named is Toll-like receptor 4 (TLR4) (human (endogenous in HaCaT and human skin fibroblasts)) (UniProt O00206). In words: proximity ligation; DuoLink in situ PLA with anti-NPM1 (ab15440) and anti-TLR4 (sc-293072) on fixed, non-permeabilised HaCaT cells, serum-starved, with or without cytokine MIX (IL-17A, IL-22, TNF-alpha, IFN-gamma) for 8 h; red dots per nucleus counted.
Assay [2] has the same target. In words: proximity ligation; DuoLink in situ PLA with anti-NPM1 (ab15440) and anti-TLR4 (sc-293072) on fixed, non-permeabilised primary human fibroblasts of healthy subjects, serum-starved, with or without cytokine MIX (IL-17A, IL-22, TNF-alpha, IFN-gamma) for 8 h; red dots per nucleus counted.

No constants are given. Whether binding was seen depends on the method and setting. In cells and extracts the contact can be indirect. Some binding calls cover weakened binding; strength is not graded here.

As to “Nucleophosmin (NPM), extracellular (from UniProt P06748 1-294)”, the binding entry in assay [1] and in assay [2] was “binds” throughout.
